Our source for the AC50 values is PubChem BioAssay AID493014 (National Center for Advancing Translational Sciences (NCATS), 2011).

Some of the results follow. Shown are side measurements of this screen, not its main read-out; they come without a call. The list favours compounds with an active or inconclusive main result. Potencies come from curve fits of mixed quality, noted in brackets.

A short description of the test: qHTS Assay to Find Inhibitors of Chronic Active B-Cell Receptor Signaling. To be noted: ABC-DLBCL IkBa-CBG/CBR reporter, luminescence ratio (green luciferase fused to IkBa over red control in TMD8 lymphoma cells), 4 h. The gist of the method: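 Cell line TMD8 (human ABC DLBCL), stably expressing tet-inducible CBG68-IkBa fusion and CBR; IMDM/0.5% FBS; cpd up to 46 uM; dox induction, 4 h, 37C/5% CO2; dual luminescence; green/red ratio; MG132 control.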
(In general: In qHTS, concentration-response curves come from the screen itself.)

[1] abbreviates: measured here: CBR red luminescence, cell number.
[2] abbreviates: measured here: IkBa-CBG green luminescence.

For orientation: AC50 means the midpoint of the concentration-response curve, whichever way the signal moves. Regarding `Cc1cc(C)cc(Cn2ncc(Cl)c(Cl)c2=O)c1`, the AC50 under setting [1] is 11.6 µM [falling, partial curve].
In the case of `CC(C)Oc1ccc(C(CCNCc2ccc(O)cc2)c2ccccc2)cc1` (stereo not given), the concentration at half-maximal activity (AC50) under setting [1] was 6.31 µM [rising, single point].
Still for that read-out and setting: the figure for `COc1ccccc1OCCSc1nnc(C)n1-c1ccccc1` is 0.0291 µM [falling, full curve, poor fit].
With `CCN1C(=NCC(C)C)N[C@@H](c2ccccc2)[C@H](C(=O)OC)[C@H]1C`, the AC50 under setting [1] was 0.794 µM [falling, partial curve].
Regarding `O=C(N/N=C/c1ccc(O)cc1)c1csc2c1CCCC2`, the AC50 under setting [1] is 9.2 µM [falling, partial curve].
On the same count and under the same terms, as for `Cc1ccc(/C=C2\SC(=S)N(CC3CCCO3)C2=O)o1` (stereo not given), the figure is 35.5 µM [rising, single point]; as for `Cc1cccc(Nc2nc(-c3ccc(O)cc3O)cs2)n1`, 11.2 µM [falling, partial curve, poor fit].
For `O=C(CSCC(=O)Nc1nccs1)Nc1ccccc1`, the concentration at half-maximal activity (AC50) under setting [1] is 12.6 µM [falling, partial curve].
On the same count and under the same terms, the figure for `Cc1ccc(C(C(=O)NC2CCCC2)N(Cc2ccco2)C(=O)CCC(=O)Nc2ccccn2)cc1` (stereo not given) is 22.4 µM [falling, single point].
The same measure, in the same setting: as for `Cc1ccc(C(=O)CCS(=O)(=O)c2ccc(F)cc2)cc1`, the figure is 25.1 µM [falling, single point]; as for `CCC(=O)NC(c1ccco1)c1cc(Br)c2cccnc2c1O` (stereo not given), 29.1 µM [falling, single point]; as for `CN(C)c1ccc(C(=O)C(=O)c2ccccc2)cc1`, 6.31 µM [rising, single point].
On to `Cc1cccc2c1OCC/C2=N\NC(=O)COc1ccccc1`, for which the AC50 under setting [1] is 1.12 µM [rising, full curve, poor fit].
For `Fc1cccc(-c2cc3nc4c(c(N5CCC6(CC5)OCCO6)n3n2)CCCC4)c1`, under setting [1], the AC50 is 6.51 µM [rising, single point].
For `COc1ccc(-c2n[nH]c(=S)n2Cc2ccccc2)cc1OC`, the AC50 under setting [1] was 0.1 µM [rising, full curve, poor fit].
Regarding `CCOc1ccc(NCc2cccn2-c2nnc(N3CCC(C(=O)NCCCN4CCCCC4CC)CC3)s2)cc1` (stereo not given), under setting [1], the AC50 is 14.1 µM [falling, partial curve].
Still for that read-out and setting: as for `COc1cccc(-c2cc(C(=O)N3CCN(C(=O)c4ccco4)CC3)[nH]n2)c1`, the figure is 8.91 µM [falling, partial curve, poor fit]; as for `CN(CC(=O)Nc1ccc(F)cc1)C(=O)c1cc2c(s1)CCCCC2`, 16.4 µM [falling, single point]; as for `Cc1oc(-c2ccc(F)cc2)nc1CN(Cc1ccccn1)CC1CCCO1` (stereo not given), 5.62 µM [rising, single point].
On to `Cc1nn(-c2ccccc2)c(Cl)c1C(=O)NCC1CCCO1` (stereo not given), for which, under setting [1], the AC50 was 4.61 µM [rising, partial curve, poor fit].
In the case of `CN(C)c1ccc(-c2nc3n(n2)C(c2cccnc2)C2=C(CC(C)(C)CC2=O)N3)cc1` (stereo not given), the AC50 under setting [1] is 7.94 µM [rising, partial curve].
Still for that read-out and setting: the figure for `COC(=O)Nc1nc(-c2ccccc2)c(C(=O)c2ccccc2)s1` is 16.4 µM [rising, partial curve, poor fit].
As for `CCn1c(SCC(=O)c2ccc(Cl)cc2)nnc1-c1cccs1`, the AC50 under setting [1] is 29.1 µM [falling, single point].
Still for that read-out and setting: the figure for `COc1ccc(NC(=O)c2ccc(-n3nc(C)c[n+]3[O-])cc2)cc1` is 25.9 µM [falling, single point]; for `CC(C)NC(=O)c1cc2n(n1)C(C(F)(F)F)CC(c1ccco1)N2` (stereo not given) it is 17.8 µM [rising, partial curve, poor fit]; for `CCOCCCn1c(C)nc2c(c1=O)c1nc3ccccc3nc1n2CCC1=CCCCC1` it is 6.31 µM [falling, single point].
Same read-out and setting: as for `O=C(C(Cc1ccccc1)n1cccc1)N1CCCCCC1` (stereo not given), the figure is 14.6 µM [falling, single point]; as for `CC(C)CNC(=O)COC(=O)CCC(=O)c1ccc(F)cc1`, 29.1 µM [rising, single point].
On the same count and under the same terms, the figure for `Cc1ccc(NC(=S)N2CCC(NC(=O)c3ccc(C)cc3)CC2)cc1` is 6.31 µM [rising, partial curve, poor fit]; for `COCCSc1nc2sc3c(c2c(=O)n1-c1ccccc1)CCN(C)C3` it is 8.2 µM [rising, partial curve, poor fit].
For `COc1ccc(-c2cc(C(=O)Nc3c(C)nn(Cc4ccccc4Cl)c3C)no2)cc1`, under setting [1], the half-maximal activity concentration (AC50) was 0.731 µM [rising, partial curve, poor fit].
Still for that read-out and setting: as for `CCN(CC)CCCNC(=S)N1CCN(c2nc(-c3ccccc3)cs2)CC1`, the figure is 35.5 µM [falling, single point]; as for `C/C(CC(=O)Nc1ccc(N(C)C)cc1)=N\NC(=O)c1ccccc1O`, 1.78 µM [falling, full curve].
On to `COc1ccc(S(=O)(=O)N2CCN=C2SCc2cccnc2)cc1`, for which the AC50 under setting [1] is 15.8 µM [rising, single point].
Turning to `CCc1nnc(NC(=O)c2ccc3ccccc3n2)s1`, the AC50 under setting [1] is 8.91 µM [falling, partial curve] and the AC50 under setting [2] was 3.55 µM [falling, full curve, poor fit].
On to `Cc1ccc(NC(=O)c2ccc(S(=O)(=O)N3CCC(C)CC3)cc2)cc1`, for which, under setting [1], the AC50 was 11.6 µM [rising, partial curve].
`CCOC(=O)CC(=O)CSc1nc(N)c(C#N)c(-c2ccc(Cl)cc2)c1C#N`: under setting [1], the AC50 was 10 µM [falling, partial curve].
On the same count and under the same terms, as for `Cc1onc(-c2ccccc2Cl)c1C(=O)N(Cc1ccccc1)C(C)C`, the figure is 35.5 µM [falling, single point]; as for `O=C(Oc1ccccc1C(=S)N1CCOCC1)c1ccc([N+](=O)[O-])cc1[N+](=O)[O-]`, 5.62 µM [falling, full curve].
Take `O=C(OCc1c(-c2ccccc2)ncc2ccccc12)c1ccc(Cl)cc1Cl`: the AC50 under setting [1] was 1.84 µM [falling, full curve].
Regarding `COc1ccc(OC)c(NC(=O)C2CCN(S(=O)(=O)c3c(C)noc3C)CC2)c1`, under setting [1], the AC50 is 32.6 µM [rising, partial curve, poor fit].
Consider `O=C(NCCc1nc2ccccc2[nH]1)/C(=C/c1ccc2c(c1)OCO2)NC(=O)c1ccc(Cl)cc1Cl`, for which the AC50 under setting [1] was 16.4 µM [falling, single point].
The same measure, in the same setting: the figure for `O=c1c(NCCc2ccc(Cl)cc2)c(-c2ccccc2)c1=O` is 3.55 µM [rising, full curve]; for `CCOC(=O)C1=C(COC(=O)c2cccnc2SC)NC(=O)NC1C` (stereo not given) it is 25.9 µM [rising, partial curve, poor fit].
Still for that read-out and setting: the figure for `COCCNC(=S)N(CCc1c(C)[nH]c2ccc(F)cc12)Cc1ccc(C)cc1` is 22.4 µM [falling, single point]; for `CCc1sc(C(=O)Nc2ncccc2O)cc1C` it is 1.12 µM [rising, full curve, poor fit]; for `CN(C)c1ccc(NC(=O)c2cnsn2)cc1` it is 8.91 µM [falling, partial curve].
On the same count and under the same terms, the figure for `O=C(Nc1c2c(nn1-c1ccc(F)cc1)CS(=O)(=O)C2)C12CC3CC(CC(C3)C1)C2` is 4.47 µM [rising, single point].
As for `Cc1ccc(C2CC2C(=O)NNC(=S)Nc2cccc(C)c2)cc1` (stereo not given), the half-maximal activity concentration (AC50) under setting [1] was 4.61 µM [falling, partial curve, poor fit].
Consider `O=C(Nc1nnc(C2=COCCO2)o1)c1cccc(Br)c1`, for which the AC50 under setting [1] was 35.5 µM [falling, single point].
Take `O=C(Oc1c(Cl)cc(Cl)c2cccnc12)c1ccco1`: the AC50 runs as follows: under setting [1], 2.91 µM [rising, full curve, poor fit]; under setting [2], 4.11 µM [falling, full curve].
On to `O=C(Nc1nc2ccccc2s1)c1ccc(N2CCCCC2)c([N+](=O)[O-])c1`, for which, under setting [2], the AC50 is 2.91 µM [rising, full curve, poor fit].
In the case of `COc1ccc([N+](=O)[O-])cc1C(=O)NCCOc1ccc(Cl)cc1`, under setting [1], the half-maximal activity concentration (AC50) is 1.58 µM [rising, partial curve, poor fit].
As to `O=C(CS(=O)CC(=O)Nc1ccc(Cl)cc1)NCC1OCCc2ccccc21` (stereo not given), the AC50 under setting [1] is 23.1 µM [falling, single point].
On the same count and under the same terms, the figure for `Fc1ccc(NC(=S)Nc2nccs2)cc1` is 20 µM [falling, single point]; for `CC(=O)c1cc(C#N)c(SCC(=O)OC(C)C)nc1C` it is 23.1 µM [rising, single point].
The same measure, in the same setting: the figure for `O=C(Nc1ccccn1)c1c(O)c2cccc3c2n(c1=O)CCC3` is 35.5 µM [rising, partial curve, poor fit]; for `Cc1cc(C(=O)COC(=O)c2ccc(O)cc2)c(C)n1CC1CCCO1` (stereo not given) it is 35.5 µM [falling, single point].
The same measure, in the same setting: as for `C/C(=N\NC(=O)c1ccc(NS(=O)(=O)c2cccs2)cc1)c1ccc2c(c1)OCO2`, the figure is 11.2 µM [falling, partial curve, poor fit]; as for `CO[C@H]1/C=C/O[C@@]2(C)Oc3c(C)c(O)c4c(O)c(c(C=NN5CCN(C)CC5)c(O)c4c3C2=O)NC(=O)/C(C)=C\C=C\[C@H](C)[C@H](O)[C@@H](C)[C@@H](O)[C@@H](C)[C@H](OC(C)=O)[C@@H]1C`, 25.9 µM [rising, single point].
`NC(=O)c1ccccc1OCC(=O)c1ccc(Cl)cc1`: under setting [1], the AC50 was 1 µM [rising, full curve].
As to `[O-][N+]1=c2ccc(Nc3ccccc3)cc2=NC12CCCCC2`, the AC50 under setting [1] was 0.891 µM [falling, full curve, poor fit].
The same measure, in the same setting: as for `CCc1cc2c(=O)n(Cc3ccco3)c(SCC(=O)NCC3CCCO3)nc2s1` (stereo not given), the figure is 14.1 µM [falling, partial curve, poor fit].
